Laboratory results: paper PMC10163288
Some of the results follow.

B1: il10ra_site1_normal_mot_HHH_b2_05323_000000159_0001_1_18_H_._HHH_b1_00466_af2_0001_0000100005_0000001_0 (protein)
chain: SSSSDELLQEALELLKEAFRLALRGNPEEARKVLEEAREILEEAGDERLLRQVEHLERAQSSSSS
B2: il10ra_site1_sap_14_mot_HHH_b1_03314_af2_000000278_0001_42_55_H_._HHH_b1_05793_0001_0000100005_0000001_0_0001 (protein)
chain: SSSSSVEEEVEELIEKAEELRKRGDPRWLELLMEALRIALKAGNPELLEELWEFMHRLAKSSSSS
B3: il10ra_site1_normal_mot_HHH_b1_05326_000000242_0001_1_20_H_._HHH_b1_06269_0001_0000300019_0000001_1 (protein)
chain: SSSSSDEVLELIQEAFRLLLRGDPEEARELVEEAEELAKELNDPALQKAVEIILEAVEANSSSSS
B4: il10ra_site1_sap_20_mot_HHH_b1_05326_000000242_0001_1_20_H_._HHH_b1_06846_af2_0001_0000300021_0000001_0_0001 (protein)
chain: SSSSSDEEELRELLERIEELLEEGDHEEAIRLIIEVIRLAFQLRDEEALQLAWELAKRLASSSSS
B5: il10ra_site1_sap_15_mot_HHH_b1_00682_000000211_0001_1_20_H_._HHH_b1_01856_0001_0000900045_0000001_0_0001_af2pred_0001 (protein)
chain: SSSDAREEVEKLIERVEELLKQGDDEEAKRLLMKALYIAARGEDEEAIQLVLKLFREVLQLSSSS
B6: il10ra_site1_normal_mot_HHH_b2_08186_000000021_0001_43_56_H_._HHH_b1_07279_0001_0000400037_0000001_0 (protein)
chain: SSSSSDEEEVRELLEEAEELARRGNPREAARVLLRALRIIYEAKNPELLRELWEVLRRVASSSSS
B7: il10ra_site1_sap_7_mot_HHH_b2_06795_000000133_0001_42_56_H_._HHH_b2_01770_0001_0000100001_0000002_0_0001 (protein)
chain: SSSSDEEEVEELLEEAKRLAEEGNPREAARLLQEALQHAYQAKNEELLREIWEAVREVAELSSSS
B8: il10ra_site1_sap_14_mot_6805e7cfcec1a9f49da1e1cd80eb4878_0001_af2_000000116_0001_1_14_H_._HEEHE_0687_0001_0000100004_0000001_0_0001 (protein)
chain: SSSSQETFEFLERVIEELKRLWEEGDEEEFERLVREAERYLEERGDQVALIALRHMVEALSSSSS
B9: il10ra_site1_sap_12_mot_e1dd4851c59bc1cdde016f988f6856bd_0001_1_000000200_0001_16_31_H_._HHH_b2_02453_0001_0000600030_0000001_0_0001 (protein)
chain: SSSSSDEDERYARLAIKFARLLARRDPEAARRLIELMISAAEENGDEEAVEELREVLEELSSSSS
B10: il10ra_site1_sap_25_mot_HHH_b1_02397_af2_000000085_0001_39_57_H_._HHH_b1_06551_0001_0000100004_0000002_0_0001 (protein)
chain: SSSDESQEVFEALREAAELRTEGDPEEAHKLLEELEKELREEGDRLLLIQVEFLLRDVEQGSSSS
B11: il10ra_site1_normal_mot_HHH_b2_02337_000000026_0001_38_52_H_._HHH_b2_07301_0001_0000100002_0000002_0 (protein)
chain: SSSSDELEELLERLEEALEEGDQEEFIELAQEVSSLALELGDQEVLKQVWELVQEFERLHSSSSS
B12: il10ra_site1_sap_22_mot_HEEHE_3255_000000102_0001_40_55_H_._HHH_b1_05364_af2_0001_0000300013_0000002_0_0001_af2pred_0001 (protein)
chain: SSSSSRLEEYARVAHFLAKAAAEQGNPEEARRVLERAARVLRQKNDEEALELIEELLEELSSSSS
B13: il10ra_site1_sap_16_mot_HHH_b1_00992_000000182_0001_23_40_H_._HHH_b1_02295_af2_0001_0000300017_0000001_0_0001 (protein)
chain: SEQVREIEELLKRNVEQAIAALAHLLAKSGDPELLRLAKELSRLMFQNPEEARKLVEEILEELKK
B14: il10ra_site1_normal_mot_HHH_b2_07579_000000275_0001_1_19_H_._HHH_b2_02864_0001_0000100008_0000002_0 (protein)
chain: SSSSDLEEEAEELLKELEELGNPVFVFALEHALRDVKATGDPEAKRVLEILIKWIEEALKGSSSS
B15: il10ra_site1_normal_mot_8756ee2cf497b5429c717dfc0c0bcfd6_0001_000000186_0001_1_13_H_._HHH_b1_02771_0001_0000100002_0000001_0_af2pred_0001 (protein)
chain: SSSSSEEAEEVQRLLRRIAELHSEGNPEEAKELAEEAEELARRGNNEVLEVIVEYLEELLNSSSS
B16: il10ra_site1_sap_23_mot_HHH_b2_00952_af2_000000228_0001_1_18_H_._HHH_b2_00788_af2_0001_0000800016_0000001_0_0001_af2pred_0001 (protein)
chain: SSSSSSARFLLESAERAIEIALKAGDPELARRIIKIAELLARQLGDEEVEEELEELKKEADSSSS
B17: il10ra_site1_normal_mot_HHH_b1_08446_000000041_0001_1_19_H_._HHH_b1_01093_0001_0000200027_0000002_0 (protein)
chain: SSSSDEEYELAKEAIKRAQELFENGNPEEAERLLREVIEELEELGDELVVFALRHLLRALTSSSS
B18: il10ra_site1_normal_mot_HHH_b2_07440_af2_000000021_0001_1_18_H_._HHH_b2_05956_0001_0000200027_0000002_0 (protein)
chain: SSSSSDAEEEALELSLKAFRLLLRGNPEEAEEVLKEAEEVAKEAGNERILRILEELLKVASSSSS
B19: il10ra_site1_normal_mot_HHH_b1_00456_000000263_0001_1_17_H_._HHH_b2_02610_0001_0000100003_0000002_0_af2pred_0001 (protein)
chain: SSSSSSEVQEEVEELLEEAKRIKDPAERTYALLRAFALANRNNDPELRKLVEKVAIELSSSSSSS
B20: il10ra_site1_sap_19_mot_HHH_b2_00943_af2_000000149_0001_1_17_H_._HHH_b1_08407_0001_0000100002_0000001_0_0001_af2pred_dldesign_0_af2pred (protein)
chain: SSSSNPEARATTRYLLEAAREIEDEELREKALDYARACAEKLNDPELLAELERVREELEKSSSSS
B21: il10ra_site1_normal_mot_HHH_b2_02053_af2_000000006_0001_3_19_H_._HHH_b2_04257_af2_0001_0000300004_0000001_0_af2pred_0001 (protein)
chain: SSSSSELQEILKLIEEALEARQQGNPEEAEELLEEAEKLAREANDPLAERLIKIAKKMVRSSSSS
B22: il10ra_site1_sap_17_mot_HHH_b1_05357_000000034_0001_23_39_H_._HHH_b1_06750_af2_0001_0000700020_0000002_0_0001 (protein)
chain: SSSSSLVEETYRLSREAMELLRNGNPEEAERVLREIEELLEENNDRVMLHVIEYILRQIESSSSS
B23: il10ra_site1_sap_19_mot_HHH_b2_06600_af2_000000211_0001_1_16_H_._HHH_b1_07688_af2_0001_0000600013_0000002_0_0001 (protein)
chain: SSSSSSDEVLELSRRAFHALLRGNEEEARELLEEAIELAREAGDPRLLRNLESLLEITSSSSSSS
B24: il10ra_site1_normal_mot_cff26900b2948c323735a169404cbef0_0001_1_000000271_0001_18_33_H_._HHH_b1_05248_0001_0000600021_0000001_0_af2pred_0001 (protein)
chain: SSSSDEYEEILREYEEEAKELGNSNARRRLRWATEIAKRLGASEEELRRILRAALELIEQGSSSS
B25: il10ra_site1_normal_mot_ems_3hC_416_0001_000000048_0001_1_19_H_._HHH_b2_07604_af2_0001_0000100001_0000001_0 (protein)
chain: SSSDAMQRVLELIIEAFRALLRGDREEAEELVREAEEIARERNDEAAERAVEIILEAVKVSSSSS
B26: il10ra_site1_sap_22_mot_HHH_b2_06602_000000226_0001_1_16_H_._HHH_b2_00323_0001_0000100002_0000002_0_0001_af2pred_0001 (protein)
chain: SSSSSEELERYREELEKLIEEGDREEFAQLFVEAARRAQELGDKELLEEILRLAVEFVREDSSSS
B27: il10ra_site1_sap_21_mot_HHH_b2_08265_af2_000000206_0001_22_38_H_._HHH_b1_06049_0001_0000200020_0000002_0_0001 (protein)
chain: SSSSDQEELVRLLREAFRLALRGNPEEAREVLREARELAEELNDERALHVLEDLERAVHGSSSSS
B28: il10ra_site1_normal_mot_HHH_b2_02736_000000092_0001_22_38_H_._HHH_b1_03692_0001_0000200033_0000001_0 (protein)
chain: SSSSQEAYELSRRAIEEVSRLFEEGNREEARQLAEELEELLRELGNVAALFAAEILLRALESSSS
B29: il10ra_site1_sap_20_mot_HHH_b1_03801_000000023_0001_41_55_H_._HHH_b1_02094_0001_0000200011_0000002_0_0001 (protein)
chain: SSSSDEAYEVVREAIEEAIEALRRGNPEEAREIVEEAIELIRELGNMSALFALEHLLRVINSSSS
B30: il10ra_site1_sap_17_mot_HHH_b2_01447_af2_000000258_0001_1_20_H_._HHH_b1_08248_af2_0001_0000200008_0000001_0_0001 (protein)
chain: SSSSDETYEISRKAIEEASELWERGNPEEAERVVEEALEEVRERNDPAAVFSLENLLRAIHSSSS
B31: il10ra_site1_sap_17_mot_HHH_b2_02337_000000026_0001_38_52_H_._HHH_b2_02689_0001_0000400041_0000001_0_0001 (protein)
chain: SSSSDREQRVFELLRRIVELHLEGDREEAEELLEEAEELIRELGSDIFRWQLEWLERLVNSSSSS
B32: il10ra_site1_normal_mot_HHH_b2_06786_000000018_0001_41_57_H_._HHH_b1_04343_0001_0000300015_0000001_0 (protein)
chain: SSSTDEVIERASEVAQEAVRLAIRRSDEETLQELWRLFKEIIREGDPELLKELERLLEELRSSSS
B33: il10ra_site1_sap_22_mot_HHH_b2_03220_af2_000000223_0001_23_40_H_._HHH_b1_00352_0001_0000400021_0000001_0_0001 (protein)
chain: SSSSSEEEEEVKELLEKAKELRERGDPRKASKVLAEAVHLALKANNEELLQEVWRLVKELSSSSS
B34: il10ra_site1_sap_29_mot_HHH_b1_06828_af2_000000004_0001_41_57_H_._HHH_b1_06126_af2_0001_0000500008_0000001_1_0001 (protein)
chain: SSSSDEEEEVKELLEEVRRLIEEGDDEEATELLLRATHLALRLGDAELLQEVWEVVQELYNSSSS
B35: il10ra_site1_sap_29_mot_HHH_b2_06767_000000020_0001_41_56_H_._HHH_b2_07372_0001_0000400044_0000002_0_0001 (protein)
chain: SSSSTDERFEKVAEAIKEAIELQRNGDPEEARRVLEEALELAEEANDQILRRILEKMLERLSSSS
B36: il10ra_site1_sap_23_mot_HHH_b2_00984_000000042_0001_1_20_H_._HHH_b2_03704_af2_0001_0000100003_0000003_0_0001 (protein)
chain: SSSSSSEVEERVEELLEEARHVDADEMYRLIKEAIELASEYNNDELQKLVMEVLRELMHSSSSSS
B37: il10ra_site1_sap_21_mot_HHH_b2_04680_000000215_0001_1_16_H_._HHH_b2_07708_af2_0001_0000400025_0000003_0_0001 (protein)
chain: SSSSNREEISHRFLRALIEWAEKKGDEEALEMLKRSLRIFVRALNDPELEKLLEELEELLSSSSS

Target: il10ra, Q13651
Experiment: yeast display titration

Apparent Kd, inactive:
B1 no binding seen
B2 no binding seen
B3 no binding seen
B4 no binding seen
B5 no binding seen
B6 no binding seen
B7 no binding seen
B8 no binding seen
B9 no binding seen
B10 no binding seen
B11 no binding seen
B12 no binding seen
B13 no binding seen
B14 no binding seen
B15 no binding seen
B16 no binding seen
B17 no binding seen
B18 no binding seen
B19 no binding seen
B20 no binding seen
B21 no binding seen
B22 no binding seen
B23 no binding seen
B24 no binding seen
B25 no binding seen
B26 no binding seen
B27 no binding seen
B28 no binding seen
B29 no binding seen
B30 no binding seen
B31 no binding seen
B32 no binding seen
B33 no binding seen
B34 no binding seen
B35 no binding seen
B36 no binding seen
B37 no binding seen

Seven successive entries out of the list so far, quoted:
Apparent Kd, inactive:
B4 no binding seen
B5 no binding seen
B6 no binding seen
B7 no binding seen
B8 no binding seen
B9 no binding seen
B10 no binding seen
